Patent US11701371B2, “ENPP1 inhibitors and their use for the treatment of cancer” (THE BOARD OF TRUSTEES OF THE LELAND STANFORD JUNIOR …, priority 2017, dated 2023)
For at least one compound, name, drawing or mass did not settle the structure.

Assays:
human CD14+ monocytes = experiment: Supernatant transfer from 293T cGAS ENPP1low cells to primary CD14+ monocytes, IFNB1 RT-PCR; assay type: cell-based
4T1 tumor = experiment: Tumor-associated dendritic cells in mouse 4T1 tumor model (FACS); assay type: in vivo; conditions: intratumoral 100 μL of 1 mM

SMILES: COc1cc2ncnc(N3CCC(CCP(=O)(O)O)CC3)c2cc1OC [Compound 1, dimethyl (2-(1-(6,7-dimethoxyquinazolin-4-yl)piperidin-4-yl)ethyl)phosphonic acid]
- extracellular cGAMP levels (human CD14+ monocytes; 293T cGAS ENPP1low cells transiently overexpressing ENPP1): rescued extracellular cGAMP levels
- CD14+ IFNB1 expression (human CD14+ monocytes; supernatant of ENPP1-overexpressing 293T cGAS ENPP1low cells transferred to CD14+ monocytes): induced CD14^+ IFNB1 expression
- tumor associated CD11c+ population (4T1 tumor; tumors pretreated with 20 Gy IR): increased
- tumor-associated leukocyte compositions (4T1 tumor; without IR, compared to PBS control): did not change
